Assay results taken from patent US20260232769A1 (WUXI BIOLOGICS IRELAND, published 2026).
These are yes or no findings as the source states them, for the method shown. Some binding calls cover weakened binding; strength is not graded here.

By UniProt entry, the sequences of proteins in these tests, tags left out. Where a name states a change or a piece, a line headed by the entry shows the natural chain unless it says otherwise. Residues count along the entry.
UniProt Q15116, residues 25-288: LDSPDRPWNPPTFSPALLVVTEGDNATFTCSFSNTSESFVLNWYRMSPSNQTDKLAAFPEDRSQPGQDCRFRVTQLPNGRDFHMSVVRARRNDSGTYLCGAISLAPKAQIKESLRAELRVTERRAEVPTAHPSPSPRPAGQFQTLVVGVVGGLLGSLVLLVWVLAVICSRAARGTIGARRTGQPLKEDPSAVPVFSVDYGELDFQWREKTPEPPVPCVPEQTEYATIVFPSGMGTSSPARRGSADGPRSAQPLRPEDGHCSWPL

B1: W3XX115-U3T3.F114-1.uIgG4V322 (antibody)
heavy 1: QVQLVQSGAEVKKPGSSVKVSCKASGFTFTTYYISWVRQAPGQGLEYLGYINMGSGGTNYNEKFKGRVTITADKSTSTAYMELSSLRSEDTAVYYCAIIGYFDYWGQGTMVTVSSASTKGPSVFPLAPCSRSTSESTAALGCLVKDYFPEPVTVSWNSGALTSGVHTFPAVLQSSGLYSLSSVVTVPSSSLGTKTYTCNVDHKPSNTKVDKRVESKYGPPCPPCPAPEAAGGPSVFLFPPKPKDTLMISRTPEVTCVVVDVSQEDPEVQFNWYVDGVEVHNAKTKPREEQFNSTYRVVSVLTVLHQDWLNGKEYKCKVSNKGLPSSIEKTISKAKGQPREPQVYTLPPCQEEMTKNQVSLWCLVKGFYPSDIAVEWESNGQPENNYKTTPPVLDSDGSFFLYSRLTVDKSRWQEGNVFSCSVMHEALHNHYTQKSLSLSLGGGGGSGGGGSGGGGSGGGGSAPTSSSTKKTQLQLEHLLLDLQMILNGINNYKNPKLTRMLTAKFAMPKKATELKHLQCLEEELKPLEEVLNGAQSKNFHLRPRDLISNINVIVLELKGSETTFMCEYADETATIVEFLNRWITFCQSIISTLT
heavy 2: QVQLVQSGAEVKKPGSSVKVSCKASGFTFTTYYISWVRQAPGQGLEYLGYINMGSGGTNYNEKFKGRVTITADKSTSTAYMELSSLRSEDTAVYYCAIIGYFDYWGQGTMVTVSSASTKGPSVFPLAPCSRSTSESTAALGCLVKDYFPEPVTVSWNSGALTSGVHTFPAVLQSSGLYSLSSVVTVPSSSLGTKTYTCNVDHKPSNTKVDKRVESKYGPPCPPCPAPEAAGGPSVFLFPPKPKDTLMISRTPEVTCVVVDVSQEDPEVQFNWYVDGVEVHNAKTKPREEQFNSTYRVVSVLTVLHQDWLNGKEYKCKVSNKGLPSSIEKTISKAKGQPREPQVCTLPPSQEEMTKNQVSLSCAVKGFYPSDIAVEWESNGQPENNYKTTPPVLDSDGSFFLVSRLTVDKSRWQEGNVFSCSVMHEALHNHYTQKSLSLSLGK
light: DVVMTQSPLSLPVTLGQPASISCRSSQSLLDSDGGTYLYWFQQRPGQSPRRLIYLVSTLGSGVPDRFSGSGSGTDFTLKISRVEAEDVGVYYCMQLTHWPYTFGQGTKLEIKRTVAAPSVFIFPPSDEQLKSGTASVVCLLNNFYPREAKVQWKVDNALQSGNSQESVTEQDSKDSTYSLSSTLTLSKADYEKHKVYACEVTHQGLSSPVTKSFNRGEC
B2: W3XX115-T2U3.E44-15.uIgG4V322 (Fc fusion)
chain: APTSSSTKKTQLQLEHLLLDLQMILNGINNYKNPKLTRMLTVKFYMPKKATELKHLQCLEEELKPLEEVLNLAQSKNFHLRPRDLISNINVIVLELKGSETTFMCEYADETATIVEFLNRWITFCQSIIESKYGPPCPPCPAPEAAGGPSVFLFPPKPKDTLMISRTPEVTCVVVDVSQEDPEVQFNWYVDGVEVHNAKTKPREEQFNSTYRVVSVLTVLHQDWLNGKEYKCKVSNKGLPSSIEKTISKAKGQPREPQVYTLPPCQEEMTKNQVSLWCLVKGFYPSDIAVEWESNGQPENNYKTTPPVLDSDGSFFLYSRLTVDKSRWQEGNVFSCSVMHEALHNHYTQKSLSLSLGK
heavy: QVQLVQSGAEVKKPGSSVKVSCKASGFTFTTYYISWVRQAPGQGLEYLGYINMGSGGTNYNEKFKGRVTITADKSTSTAYMELSSLRSEDTAVYYCAIIGYFDYWGQGTMVTVSSASTKGPSVFPLAPCSRSTSESTAALGCLVKDYFPEPVTVSWNSGALTSGVHTFPAVLQSSGLYSLSSVVTVPSSSLGTKTYTCNVDHKPSNTKVDKRVESKYGPPCPPCPAPEAAGGPSVFLFPPKPKDTLMISRTPEVTCVVVDVSQEDPEVQFNWYVDGVEVHNAKTKPREEQFNSTYRVVSVLTVLHQDWLNGKEYKCKVSNKGLPSSIEKTISKAKGQPREPQVCTLPPSQEEMTKNQVSLSCAVKGFYPSDIAVEWESNGQPENNYKTTPPVLDSDGSFFLVSRLTVDKSRWQEGNVFSCSVMHEALHNHYTQKSLSLSLGK
light: DVVMTQSPLSLPVTLGQPASISCRSSQSLLDSDGGTYLYWFQQRPGQSPRRLIYLVSTLGSGVPDRFSGSGSGTDFTLKISRVEAEDVGVYYCMQLTHWPYTFGQGTKLEIKRTVAAPSVFIFPPSDEQLKSGTASVVCLLNNFYPREAKVQWKVDNALQSGNSQESVTEQDSKDSTYSLSSTLTLSKADYEKHKVYACEVTHQGLSSPVTKSFNRGEC

Biological target: PD-1 (on CHO-PD1 engineered cell line; on activated CD8+ T cells) (UniProt Q15116)
Test: flow cytometry (FACS, MFI) on CHO-PD1 cells, PE-anti-human Fc detection

Row | Binder | binding
1 | B1 | binds
2 | B2 | binds
